# According to US8173631B2, “Cyclic amine compounds” (Daiichi Sankyo Company, Limited, priority 2008, dated 2012):
# Some results were stated once for a whole list of compounds, not compound by compound.
# System: PTH secretion
# Test: Evaluation of PTH secretion promoting activity in a rat (blood serum PTH after oral administration)
# Format: in vivo
# Conditions: female F344 rat, oral 3 mg/5 mL/kg
# Description: Evaluation of PTH Secretion Promoting Activity in a Rat
# A 10 to 14-week old female F344 rat (Charles River Japan, Inc.) fasted overnight was anesthetized using ether, and blood serum before the administration was prepared by drawing blood from the jugular vein of the animal. Subsequently, the test compound was orally administered at a dose of 3 mg/5 mL/kg using a solvent (0.5% aqueous methyl cellulose solution containing 5% DMA). Blood was drawn from the jugular vein under ether anesthesia at 5, 15, 30, 60, 120, and 240 minutes after the administration of the test compound, and the blood serum was prepared. The blood serum PTH concentration was measured using rat Intact PTH ELISA kit (manufactured by Immutopics, Inc.).
smiles,measurement,setting,value
C[C@@H](OC[C@H](O)CN1CCC[C@H]1Cc1ccc(Cl)c(Cl)c1)c1cc(F)c(F)cc1CCC(=O)O [Example 177],blood serum PTH concentration at 5 minutes to 15 minutes,5 to 15 minutes after administration,≥ 400 pg/mL
same,blood serum PTH concentration after 240 minutes,after 240 minutes,≤ 150 pg/mL
